Assay results taken from publication PMC7948964.
Read-outs that look alike come from different tables or passages of the source. Results are given in words; binding and its absence hold for the method and conditions named. In cells and extracts the contact can be indirect. A yes stands for co-enrichment or nearness to the bait. Other partners may have been found. For part of these data: A no says only that the protein was not detected with the bait. Sequences can lack the tags named with a protein. One block for each molecule: values may come before it.

Chains of the proteins cited; added tags and fusions are not shown.
UniProt Q5VSL9: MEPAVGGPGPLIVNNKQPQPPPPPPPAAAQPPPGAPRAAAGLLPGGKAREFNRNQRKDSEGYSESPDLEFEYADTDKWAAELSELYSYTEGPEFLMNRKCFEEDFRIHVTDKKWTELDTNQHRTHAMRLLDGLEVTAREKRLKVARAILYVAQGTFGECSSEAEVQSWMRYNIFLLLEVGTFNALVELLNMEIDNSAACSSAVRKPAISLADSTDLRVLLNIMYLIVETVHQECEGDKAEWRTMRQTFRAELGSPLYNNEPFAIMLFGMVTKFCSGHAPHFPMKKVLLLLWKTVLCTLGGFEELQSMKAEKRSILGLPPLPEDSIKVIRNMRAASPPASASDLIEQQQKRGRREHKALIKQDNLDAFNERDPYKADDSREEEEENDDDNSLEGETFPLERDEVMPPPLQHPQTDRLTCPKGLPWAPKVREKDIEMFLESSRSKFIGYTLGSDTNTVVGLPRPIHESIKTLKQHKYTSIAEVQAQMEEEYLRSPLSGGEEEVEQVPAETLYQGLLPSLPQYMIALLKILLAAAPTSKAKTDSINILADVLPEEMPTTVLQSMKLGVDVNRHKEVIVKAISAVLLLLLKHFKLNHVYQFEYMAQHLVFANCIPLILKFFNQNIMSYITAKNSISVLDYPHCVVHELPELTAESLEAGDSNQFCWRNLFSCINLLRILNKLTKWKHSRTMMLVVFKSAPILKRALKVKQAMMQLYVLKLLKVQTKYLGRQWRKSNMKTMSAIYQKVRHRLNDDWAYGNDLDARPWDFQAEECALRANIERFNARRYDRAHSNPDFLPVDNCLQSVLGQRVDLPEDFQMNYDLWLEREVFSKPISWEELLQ
UniProt Q9ULQ0: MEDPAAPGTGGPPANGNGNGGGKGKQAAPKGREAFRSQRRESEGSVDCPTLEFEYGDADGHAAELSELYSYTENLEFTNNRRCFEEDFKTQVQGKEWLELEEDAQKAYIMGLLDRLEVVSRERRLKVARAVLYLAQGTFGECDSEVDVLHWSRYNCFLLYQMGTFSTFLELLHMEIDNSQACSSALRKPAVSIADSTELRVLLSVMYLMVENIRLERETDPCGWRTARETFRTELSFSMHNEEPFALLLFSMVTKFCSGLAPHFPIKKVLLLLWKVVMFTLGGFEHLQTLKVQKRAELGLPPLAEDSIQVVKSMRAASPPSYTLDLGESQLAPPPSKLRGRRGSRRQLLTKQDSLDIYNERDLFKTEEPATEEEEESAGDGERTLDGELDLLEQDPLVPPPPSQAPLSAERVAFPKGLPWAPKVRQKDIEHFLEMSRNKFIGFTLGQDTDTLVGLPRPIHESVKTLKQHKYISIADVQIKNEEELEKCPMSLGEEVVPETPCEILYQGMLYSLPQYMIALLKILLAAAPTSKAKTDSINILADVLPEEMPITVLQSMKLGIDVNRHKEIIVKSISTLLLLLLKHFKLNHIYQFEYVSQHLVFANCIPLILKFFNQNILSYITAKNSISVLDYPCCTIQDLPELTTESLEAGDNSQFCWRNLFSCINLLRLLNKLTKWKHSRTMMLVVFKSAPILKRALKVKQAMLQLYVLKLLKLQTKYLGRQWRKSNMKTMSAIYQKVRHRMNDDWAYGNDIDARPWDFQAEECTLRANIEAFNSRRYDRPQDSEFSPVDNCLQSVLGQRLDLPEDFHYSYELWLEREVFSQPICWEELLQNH
UniProt Q15386: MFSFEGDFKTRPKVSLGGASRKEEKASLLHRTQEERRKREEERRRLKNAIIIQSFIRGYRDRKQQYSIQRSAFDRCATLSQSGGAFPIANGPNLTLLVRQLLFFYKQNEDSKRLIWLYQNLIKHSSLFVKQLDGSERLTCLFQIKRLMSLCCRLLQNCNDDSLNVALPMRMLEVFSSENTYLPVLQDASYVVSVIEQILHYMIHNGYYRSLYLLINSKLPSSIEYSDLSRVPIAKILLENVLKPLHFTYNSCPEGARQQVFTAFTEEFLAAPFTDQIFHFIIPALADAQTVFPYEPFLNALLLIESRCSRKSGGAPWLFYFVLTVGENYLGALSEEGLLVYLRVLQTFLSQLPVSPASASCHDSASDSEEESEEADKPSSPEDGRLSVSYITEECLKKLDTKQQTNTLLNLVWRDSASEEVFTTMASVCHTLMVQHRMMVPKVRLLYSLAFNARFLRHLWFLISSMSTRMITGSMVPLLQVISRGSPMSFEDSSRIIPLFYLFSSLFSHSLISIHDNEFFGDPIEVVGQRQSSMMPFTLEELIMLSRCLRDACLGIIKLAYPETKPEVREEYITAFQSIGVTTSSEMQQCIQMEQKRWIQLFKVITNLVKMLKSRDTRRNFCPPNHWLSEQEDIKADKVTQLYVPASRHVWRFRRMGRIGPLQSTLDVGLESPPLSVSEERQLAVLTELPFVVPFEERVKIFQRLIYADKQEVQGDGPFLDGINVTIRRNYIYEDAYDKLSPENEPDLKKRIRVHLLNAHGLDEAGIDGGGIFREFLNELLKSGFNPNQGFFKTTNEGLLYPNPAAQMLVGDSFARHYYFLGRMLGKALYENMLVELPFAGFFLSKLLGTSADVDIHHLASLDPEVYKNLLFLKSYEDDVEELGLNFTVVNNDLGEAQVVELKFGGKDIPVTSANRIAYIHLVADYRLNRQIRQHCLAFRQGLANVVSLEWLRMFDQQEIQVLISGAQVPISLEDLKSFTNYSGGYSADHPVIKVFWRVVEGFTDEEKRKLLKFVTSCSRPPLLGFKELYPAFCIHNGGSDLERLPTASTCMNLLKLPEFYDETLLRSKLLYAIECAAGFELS
UniProt Q8WZ74: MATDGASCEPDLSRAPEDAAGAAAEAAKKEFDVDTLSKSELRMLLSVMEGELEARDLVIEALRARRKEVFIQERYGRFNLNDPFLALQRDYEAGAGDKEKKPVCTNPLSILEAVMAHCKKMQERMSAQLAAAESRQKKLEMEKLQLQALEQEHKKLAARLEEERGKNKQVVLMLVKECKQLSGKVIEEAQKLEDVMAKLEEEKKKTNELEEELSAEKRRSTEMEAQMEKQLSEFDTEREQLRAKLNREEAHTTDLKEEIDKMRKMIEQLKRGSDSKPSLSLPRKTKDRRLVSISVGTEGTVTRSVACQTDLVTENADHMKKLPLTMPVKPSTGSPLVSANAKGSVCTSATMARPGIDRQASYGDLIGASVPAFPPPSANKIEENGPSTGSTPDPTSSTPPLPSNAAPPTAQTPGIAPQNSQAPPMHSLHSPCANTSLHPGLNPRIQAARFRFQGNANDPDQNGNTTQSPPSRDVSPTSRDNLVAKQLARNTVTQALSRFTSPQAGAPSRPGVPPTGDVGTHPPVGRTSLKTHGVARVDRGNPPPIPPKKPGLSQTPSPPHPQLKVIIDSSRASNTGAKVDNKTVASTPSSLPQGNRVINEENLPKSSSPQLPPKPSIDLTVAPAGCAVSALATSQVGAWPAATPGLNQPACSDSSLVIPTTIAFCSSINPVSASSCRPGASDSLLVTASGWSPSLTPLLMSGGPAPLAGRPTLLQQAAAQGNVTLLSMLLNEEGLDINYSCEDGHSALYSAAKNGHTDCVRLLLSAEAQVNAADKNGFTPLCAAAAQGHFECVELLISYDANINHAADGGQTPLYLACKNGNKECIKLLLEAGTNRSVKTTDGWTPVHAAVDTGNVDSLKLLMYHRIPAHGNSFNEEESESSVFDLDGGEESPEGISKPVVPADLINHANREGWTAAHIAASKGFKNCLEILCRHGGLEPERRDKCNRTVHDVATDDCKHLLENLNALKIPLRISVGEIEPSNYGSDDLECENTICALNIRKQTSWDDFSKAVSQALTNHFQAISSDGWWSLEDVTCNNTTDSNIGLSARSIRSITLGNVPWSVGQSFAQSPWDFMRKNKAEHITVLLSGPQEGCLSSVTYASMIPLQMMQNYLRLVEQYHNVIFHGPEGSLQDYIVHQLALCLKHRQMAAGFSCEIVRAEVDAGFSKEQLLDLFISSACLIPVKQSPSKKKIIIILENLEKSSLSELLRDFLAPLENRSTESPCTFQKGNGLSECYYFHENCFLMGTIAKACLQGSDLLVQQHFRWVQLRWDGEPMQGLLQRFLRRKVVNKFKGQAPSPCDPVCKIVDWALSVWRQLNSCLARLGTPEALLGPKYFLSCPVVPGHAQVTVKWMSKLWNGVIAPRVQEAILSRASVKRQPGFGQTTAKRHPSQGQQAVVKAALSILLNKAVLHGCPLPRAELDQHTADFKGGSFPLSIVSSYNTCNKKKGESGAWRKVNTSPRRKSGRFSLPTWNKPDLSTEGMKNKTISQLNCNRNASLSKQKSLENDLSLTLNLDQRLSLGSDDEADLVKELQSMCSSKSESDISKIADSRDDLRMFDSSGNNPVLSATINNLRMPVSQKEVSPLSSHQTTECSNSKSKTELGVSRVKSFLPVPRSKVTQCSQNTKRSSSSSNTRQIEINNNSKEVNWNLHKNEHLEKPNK
UniProt P46934: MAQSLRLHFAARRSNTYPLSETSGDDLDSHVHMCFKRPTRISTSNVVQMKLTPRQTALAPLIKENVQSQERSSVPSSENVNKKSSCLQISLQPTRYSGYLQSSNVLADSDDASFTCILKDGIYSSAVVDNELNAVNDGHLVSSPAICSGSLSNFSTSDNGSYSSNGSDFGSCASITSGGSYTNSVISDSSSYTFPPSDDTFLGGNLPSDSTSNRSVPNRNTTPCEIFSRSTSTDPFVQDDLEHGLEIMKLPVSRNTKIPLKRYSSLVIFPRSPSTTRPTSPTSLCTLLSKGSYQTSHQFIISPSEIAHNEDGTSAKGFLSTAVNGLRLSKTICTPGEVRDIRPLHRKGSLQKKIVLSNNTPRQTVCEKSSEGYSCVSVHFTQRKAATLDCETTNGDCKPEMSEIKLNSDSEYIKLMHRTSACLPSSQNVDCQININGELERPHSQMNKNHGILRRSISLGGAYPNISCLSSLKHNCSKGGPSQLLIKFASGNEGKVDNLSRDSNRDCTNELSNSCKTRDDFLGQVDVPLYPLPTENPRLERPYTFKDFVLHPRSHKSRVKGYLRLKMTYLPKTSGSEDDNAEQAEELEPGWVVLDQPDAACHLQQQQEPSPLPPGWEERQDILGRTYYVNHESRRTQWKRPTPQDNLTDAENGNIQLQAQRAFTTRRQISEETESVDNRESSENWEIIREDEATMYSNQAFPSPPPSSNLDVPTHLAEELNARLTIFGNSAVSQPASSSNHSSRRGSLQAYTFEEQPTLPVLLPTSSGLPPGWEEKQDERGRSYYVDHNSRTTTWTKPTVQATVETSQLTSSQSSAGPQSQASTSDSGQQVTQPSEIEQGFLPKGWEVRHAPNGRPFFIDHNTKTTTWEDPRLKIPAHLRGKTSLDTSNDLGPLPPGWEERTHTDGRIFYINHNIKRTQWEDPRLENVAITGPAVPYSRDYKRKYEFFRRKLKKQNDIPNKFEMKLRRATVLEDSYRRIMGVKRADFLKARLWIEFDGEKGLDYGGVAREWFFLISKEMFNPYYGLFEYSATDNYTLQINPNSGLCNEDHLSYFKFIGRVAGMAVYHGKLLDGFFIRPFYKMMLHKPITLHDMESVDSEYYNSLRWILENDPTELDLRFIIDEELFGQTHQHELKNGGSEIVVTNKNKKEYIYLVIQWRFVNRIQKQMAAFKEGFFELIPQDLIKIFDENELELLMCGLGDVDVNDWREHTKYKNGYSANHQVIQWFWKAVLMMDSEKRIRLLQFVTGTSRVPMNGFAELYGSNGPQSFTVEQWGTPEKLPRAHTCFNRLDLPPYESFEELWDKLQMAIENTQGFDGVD

What was measured:
Experiment in all cases: affinity purification with mass spectrometry; 3xFLAG TRABID constructs transiently expressed in HEK293ET; Triton Lysis Buffer; FLAG M2 magnetic beads 1 h at room temperature; gel slices, LC-MS/MS on an Orbitrap Velos; n = 1 for each plasmid
[1] = target: T1, 3xFLAG_full-length-TRABID^C443S (human) (UniProt Q9UGI0)
T1 sequence: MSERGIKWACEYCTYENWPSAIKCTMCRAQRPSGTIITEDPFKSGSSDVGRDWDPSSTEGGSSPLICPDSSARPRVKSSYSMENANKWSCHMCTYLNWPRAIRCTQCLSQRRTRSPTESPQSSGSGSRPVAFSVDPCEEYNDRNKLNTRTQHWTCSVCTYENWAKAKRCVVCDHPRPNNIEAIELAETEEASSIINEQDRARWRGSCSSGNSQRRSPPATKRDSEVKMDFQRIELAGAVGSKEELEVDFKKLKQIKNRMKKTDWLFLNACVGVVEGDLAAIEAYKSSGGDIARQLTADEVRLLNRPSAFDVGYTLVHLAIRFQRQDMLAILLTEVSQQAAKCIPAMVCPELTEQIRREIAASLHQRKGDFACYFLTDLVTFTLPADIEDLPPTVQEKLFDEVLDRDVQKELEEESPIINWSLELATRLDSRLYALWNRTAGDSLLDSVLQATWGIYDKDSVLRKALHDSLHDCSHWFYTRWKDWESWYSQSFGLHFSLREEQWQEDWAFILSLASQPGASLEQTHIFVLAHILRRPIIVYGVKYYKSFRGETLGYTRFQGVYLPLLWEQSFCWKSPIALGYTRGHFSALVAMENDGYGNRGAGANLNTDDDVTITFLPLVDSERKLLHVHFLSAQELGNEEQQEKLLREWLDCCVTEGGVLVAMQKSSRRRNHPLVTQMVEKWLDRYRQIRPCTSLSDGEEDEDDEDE

[2] = target: T2, 3xFLAG_TRABID ΔOTU (TRABID 1-339) (human) (UniProt Q9UGI0)
T2 sequence: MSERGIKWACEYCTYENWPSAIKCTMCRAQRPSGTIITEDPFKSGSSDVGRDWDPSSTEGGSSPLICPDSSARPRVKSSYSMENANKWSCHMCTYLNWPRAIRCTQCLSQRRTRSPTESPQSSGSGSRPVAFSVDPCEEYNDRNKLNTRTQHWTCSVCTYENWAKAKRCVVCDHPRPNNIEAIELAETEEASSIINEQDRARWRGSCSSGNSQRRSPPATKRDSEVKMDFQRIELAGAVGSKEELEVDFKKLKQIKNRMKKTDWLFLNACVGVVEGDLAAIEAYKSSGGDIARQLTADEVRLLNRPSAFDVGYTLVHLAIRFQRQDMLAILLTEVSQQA

[3] = target: T1, 3xFLAG_full-length-TRABID^C443S (human); remark: listed apart in the source
[4] = target: T2, 3xFLAG_TRABID ΔOTU (TRABID 1-339) (human); remark: listed apart in the source

binding [1]: binds
binding [2]: no binding
Molecule: FAM40A (from UniProt Q5VSL9 1-837)

binding [1]: binds
binding [2]: no binding
Molecule: FAM40B (from UniProt Q9ULQ0 1-834)

binding [1]: binds
Molecule: endogenous UBE3C (from UniProt Q15386 1-1083) (enzyme)

binding [3]: binds
binding [4]: no binding
B1: CTTNBP2L (protein, UniProt Q9P2B4 1-639)
chain: MNLEKLSKPELLTLFSILEGELEARDLVIEALKAQHRDTFIEERYGKYNISDPLMALQRDFETLKEKNDGEKQPVCTNPLSILKVVMKQCKNMQERMLSQLAAAESRHRKVILDLEEERQRHAQDTAEGDDVTYMLEKERERLTQQLEFEKSQVKKFEKEQKKLSSQLEEERSRHKQLSSMLVLECKKATNKAAEEGQKAGELSLKLEKEKSRVSKLEEELAAERKRGLQTEAQVEKQLSEFDIEREQLRAKLNREENRTKTLKEEMESLKKIVKDLEASHQHSSPNEQLKKPVTVSKGTATEPLMLMSVFCQTESFPAERTHGSNIAKMTNTGLPGPATPAYSYAKTNGHCDPEIQTTRELTAGNNVENQVPPREKSVALAQEKPVENGGCPVGIETPVPMPSPLSSSGSSLSPSSTASSSLTSSPCSSPVLTKRLLGSSASSPGYQSSYQVGINQRFHAARHKFQSQADQDQQASGLQSPPSRDLSPTLIDNSAAKQLARNTVTQVLSRFTSQQGPIKPVSPNSSPFGTDYRNLANTANPRGDTSHSPTPGKVSSPLSPLSPGIKSPTIPRAERGNPPPIPPKKPGLTPSPSATTPLTKTHSQAASLTTAEDLASSCSSNTVVANGKDVELLLPTSS

Further lines, the molecule ahead of its results:

Molecule: CTTNBP2 (from UniProt Q8WZ74 1-1663)
binding [1]: binds
binding [2]: no binding

Molecule: endogenous NEDD4 (from UniProt P46934 1-1319) (enzyme)
binding [1]: no binding
binding [2]: no binding

B2: Striatin 3 (protein, UniProt Q13033 1-797)
chain: MDELAGGGGGGPGMAAPPRQQQGPGGNLGLSPGGNGAAGGGGPPASEGAGPAAGPELSRPQQYTIPGILHYIQHEWARFEMERAHWEVERAELQARIAFLQGERKGQENLKKDLVRRIKMLEYALKQERAKYHKLKYGTELNQGDLKMPTFESEETKDTEAPTAPQNSQLTWKQGRQLLRQYLQEVGYTDTILDVRSQRVRSLLGLSNSEPNGSVETKNLEQILNGGESPKQKGQEIKRSSGDVLETFNFLENADDSDEDEENDMIEGIPEGKDKHRMNKHKIGNEGLAADLTDDPDTEEALKEFDFLVTAEDGEGAGEARSSGDGTEWDKDDLSPTAEVWDVDQGLISKLKEQYKKERKGKKGVKRANRTKLYDMIADLGDDELPHIPSGIINQSRSASTRMTDHEGARAEEAEPITFPSGGGKSFIMGSDDVLLSVLGLGDLADLTVTNDADYSYDLPANKDAFRKTWNPKYTLRSHFDGVRALAFHPVEPVLVTASEDHTLKLWNLQKTVPAKKSASLDVEPIYTFRAHIGPVLSLAISSNGEQCFSGGIDATIQWWNMPSPSVDPYDTYEPNVLAGTLVGHTDAVWGLAYSGIKNQLLSCSADGTVRLWNPQEKLPCICTYNGDKKHGIPTSVDFIGCDPAHMVTSFNTGSAVIYDLETSQSLVILSSQVDSGLQSNNHINRVVSHPTLPVTITAHEDRHIKFFDNKTGKMIHSMVAHLDAVTSLAVDPNGIYLMSGSHDCSIRLWNLDSKTCVQEITAHRKKLDESIYDVAFHSSKAYIASAGADALAKVFV
binding [3]: binds
binding [4]: no binding

B3: SLMAP (protein, UniProt Q14BN4 1-828)
chain: MPSALAIFTCRPNSHPFQERHVYLDEPIKIGRSVARCRPAQNNATFDCKVLSRNHALVWFDHKTGKFYLQDTKSSNGTFINSQRLSRGSEESPPCEILSGDIIQFGVDVTENTRKVTHGCIVSTIKLFLPDGMEARLRSDVIHAPLPSPVDKVAANTPSMYSQELFQLSQYLQEALHREQMLEQKLATLQRLLAITQEASDTSWQALIDEDRLLSRLEVMGNQLQACSKNQTEDSLRKELIALQEDKHNYETTAKESLRRVLQEKIEVVRKLSEVERSLSNTEDECTHLKEMNERTQEELRELANKYNGAVNEIKDLSDKLKVAEGKQEEIQQKGQAEKKELQHKIDEMEEKEQELQAKIEALQADNDFTNERLTALQVRLEHLQEKTLKECSSLEHLLSKSGGDCTFIHQFIECQKKLIVEGHLTKAVEETKLSKENQTRAKESDFSDTLSPSKEKSSDDTTDAQMDEQDLNEPLAKVSLLKDDLQGAQSEIEAKQEIQHLRKELIEAQELARTSKQKCFELQALLEEERKAYRNQVEESTKQIQVLQAQLQRLHIDTENLREEKDSEITSTRDELLSARDEILLLHQAAAKVASERDTDIASLQEELKKVRAELERWRKAASEYEKEITSLQNSFQLRCQQCEDQQREEATRLQGELEKLRKEWNALETECHSLKRENVLLSSELQRQEKELHNSQKQSLELTSDLSILQMSRKELENQVGSLKEQHLRDSADLKTLLSKAENQAKDVQKEYEKTQTVLSELKLKFEMTEQEKQSITDELKQCKNNLKLLREKGNNKPWPWMPMLAALVAVTAIVLYVPGLARASP
binding [3]: binds
binding [4]: no binding
